Assay in all cases: pull-down; GST, GST-ABI or GST-ABIΔ on glutathione beads incubated with 25 μl of a 100 μl 35S-labelled in vitro transcription/translation reaction; 2 h at 4 °C in PBB2 (25 mM HEPES pH 7.6, 150 mM NaCl, 5 mM MgCl2, 0.1 mM EDTA, 0.1% Tween-20, 0.25% BSA); washes with 300 and 250 mM NaCl; SDS-PAGE, autoradiography, phosphorimager quantitation; only the target purified
In test [1] the target is GST-ABI-1Δ (N-terminal GST fusion to the product of the abi-1(tm494) allele) (C. elegans) (UniProt Q10929).
For test [2] the target is unchanged. This is another data set of the same source.
Test [3] has as its target GST (glutathione-S-transferase alone).

Protein sequences, listed by entry. Tags and fused reporters are not part of them. Lines headed by an entry give the natural chain unless they say otherwise; changes in a name come on top.
UniProt Q10929: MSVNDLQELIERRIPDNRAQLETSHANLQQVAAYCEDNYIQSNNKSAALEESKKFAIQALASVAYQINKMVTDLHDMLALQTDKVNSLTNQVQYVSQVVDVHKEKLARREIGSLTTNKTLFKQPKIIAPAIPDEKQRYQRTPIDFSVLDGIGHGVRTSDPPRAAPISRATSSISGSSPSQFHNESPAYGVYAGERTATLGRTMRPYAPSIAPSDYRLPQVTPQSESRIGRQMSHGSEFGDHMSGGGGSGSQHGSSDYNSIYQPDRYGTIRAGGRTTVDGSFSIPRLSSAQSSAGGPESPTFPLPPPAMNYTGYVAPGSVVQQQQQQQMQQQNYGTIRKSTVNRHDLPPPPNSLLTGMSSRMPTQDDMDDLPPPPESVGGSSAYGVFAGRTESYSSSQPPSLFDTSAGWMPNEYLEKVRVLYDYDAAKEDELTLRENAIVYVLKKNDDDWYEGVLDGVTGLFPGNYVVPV
UniProt P08659: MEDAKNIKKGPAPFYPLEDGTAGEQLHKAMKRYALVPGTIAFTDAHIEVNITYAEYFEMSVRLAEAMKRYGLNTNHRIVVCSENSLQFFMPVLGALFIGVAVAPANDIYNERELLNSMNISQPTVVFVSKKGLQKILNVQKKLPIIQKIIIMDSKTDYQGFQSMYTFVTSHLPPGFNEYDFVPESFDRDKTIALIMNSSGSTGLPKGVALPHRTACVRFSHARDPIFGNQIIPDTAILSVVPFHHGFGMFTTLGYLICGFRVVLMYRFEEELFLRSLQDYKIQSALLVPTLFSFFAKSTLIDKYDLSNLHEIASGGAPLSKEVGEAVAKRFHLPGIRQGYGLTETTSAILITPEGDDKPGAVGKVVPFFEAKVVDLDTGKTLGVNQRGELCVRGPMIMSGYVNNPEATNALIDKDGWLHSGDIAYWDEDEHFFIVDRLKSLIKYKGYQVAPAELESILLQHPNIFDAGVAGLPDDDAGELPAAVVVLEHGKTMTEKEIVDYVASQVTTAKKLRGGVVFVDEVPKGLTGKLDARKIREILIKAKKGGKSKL

Where two headings read alike, the source gives them in different places. Results are given in words; binding and its absence hold for the method and conditions named. In cells and extracts the contact can be indirect. For some of these results: Binding calls can cover weak binding; strength is not graded here.

As for “Luciferase (control) (from UniProt P08659 1-550) (enzyme)”, in test [1], the binding entry is listed as “no binding”.

B1: ABL-1(112–611), N-terminal fragment of C. elegans ABL-1 (domain or fragment, UniProt P03949 112-611, looked up)
chain: SSSSSAPLFVALYDFHGVGEEQLSLRKGDQVRILGYNKNNEWCEARLYSTRKNDASNQRRLGEIGWVPSNFIAPYNSLDKYTWYHGKISRSDSEAILGSGITGSFLVRESETSIGQYTISVRHDGRVFHYRINVDNTEKMFITQEVKFRTLGELVHHHSVHADGLICLLMYPASKKDKGRGLFSLSPNAPDEWELDRSEIIMHNKLGGGQYGDVYEGYWKRHDCTIAVKALKEDAMPLHEFLAEAAIMKDLHHKNLVRLLGVCTHEAPFYIITEFMCNGNLLEYLRRTDKSLLPPIILVQMASQIASGMSYLEARHFIHRDLAARNCLVSEHNIVKIADFGLARFMKEDTYTAHAGAKFPIKWTAPEGLAFNTFSSKSDVWAFGVLLWEIATYGMAPYPGVELSNVYGLLENGFRMDGPQGCPPSVYRLMLQCWNWSPSDRPRFRDIHFNLENLISSNSLNDEVQKQLKKNNDKKLESDKRRSNVRERSDSKSRHSSHHD
modifications: labeled with 35S in vitro
notes: contains the SH3, SH2 and tyrosine kinase domains; Cloned in pDEST14 (Gateway) for expression in vitro; also called N-terminal half of ABL-1; source: in vitro translated (TNT T7 Quick Coupled Transcription/Translation system, Promega)
On to B1, for which the binding entry in test [2] is on record as “binds”; in test [3] it was “binds weakly”.

B2: ABL-1(606–1,224), C-terminal fragment of C. elegans ABL-1 (domain or fragment, UniProt P03949 606-1224)
chain: HSSHHDRDRDRESLHSRNSNPEIPNRSFIRTDDSVSFFNPSTTSKVTSFRAQGPPFPPPPQQNTKPKLLKSVLNSNARHASEEFERNEQDDVVPLAEKNVRKAVTRLGGTMPKGQRIDAYLDSMRRVDSWKESTDADNEGAGSSSLSRTVSNDSLDTLPLPDSMNSSTYVKMHPASGENVFLRQIRSKLKKRSETPELDHIDSDTADETTKSEKSPFGSLNKSSIKYPIKNAPEFSENHSRVSPVPVPPSRNASVSVRPDSKAEDSSDETTKDVGMWGPKHAVTRKIEIVKNDSYPNVEGELKAKIRNLRHVPKEESNTSSQEDLPLDATDNTNDSIIVIPRDEKAKVRQLVTQKVSPLQHHRPFSLQCPNNSTSSAISHSEHADSSETSSLSGVYEERMKPELPRKRSNGDTKVVPVTWIINGEKEPNGMARTKSLRDITSKFEQLGTASTIESKIEEAVPYREHALEKKGTSKRFSMLEGSNELKHVVPPRKNRNQDESGSIDEEPVSKDMIVSLLKVIQKEFVNLFNLASSEITDEKLQQFVIMADNVQKLHSTCSVYAEQISPHSKFRFKELLSQLEIYNRQIKFSHNPRAKPVDDKLKMAFQDCFDQIMRLVDR
modifications: labeled with 35S in vitro
B2: the binding entry in test [2] is “no binding”.
